One assay has as its target T1, GST–FOXK2(1–218)(R58A) (UniProt Q01167).
T1 sequence: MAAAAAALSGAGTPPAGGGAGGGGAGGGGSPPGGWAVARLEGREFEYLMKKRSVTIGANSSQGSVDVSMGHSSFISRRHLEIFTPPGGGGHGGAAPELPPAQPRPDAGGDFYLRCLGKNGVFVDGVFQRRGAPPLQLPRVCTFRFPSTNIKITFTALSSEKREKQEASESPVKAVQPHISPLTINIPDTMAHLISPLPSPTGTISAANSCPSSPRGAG
The assay is described as follows: pull-down; purified bacterially expressed GST–FOXK2(1–218) derivatives and total cell extracts from U2OS cells; with or without ethidium bromide (200 μg/ml); detection by immunoblotting; only the target purified.

A further assay deals with T2, GST–FOXK2(1–218) (UniProt Q01167).
T2 sequence: T1 sequence with A58R
Described as above.

Here are results for one substance from publication PMC4041447.

Numbering of substitutions follows the chain as printed. No constants are given. Whether binding was seen depends on the method and setting. In cells and extracts the contact can be indirect. Binding calls can cover weak binding; strength is not graded here. Tags and fused reporters may be left off the sequences shown.

“endogenous HCFC1 (U2OS) (human (endogenous in U2OS))”: the binding entry in the assay with GST–FOXK2(1–218)(R58A) and with GST–FOXK2(1–218) was “binds” each time.
